{"source": "paper PMC4447390", "molecules": {"B1": {"name": "six-His/FLAG-tagged p88^pol (enzyme, UniProt P22956 1-767)", "chain": "MGFINLSLFDVDKLMVWVSKFNPGKILSAICNLGIDCWNRFRKWFFGLNFDAHMWAVDAFIPLMPHYTEQMERVVDDFCSETPESKLEDCLELDTSVNEFFDEEVYKKDEEGVMKLQRSAARKHIKRVRPGMMQAAIKAVETRIRNRHTIFGDDMGKVDEAAVRATASDICGEFKINEHHTNALVYAAAYLAMTPDQRSIDSVKLAYNPKSQARRTLVSAIRENKAVAGFKSLEDFLGGPLSFPVEDAPYPILGIPEIRVAEKRASRVMKSKRVVGLPAVSAGLKVCVHQTSLHNMIVSLERRVFRVKNSAGELVVPPKPIQNAFDSISYFREEWLRKLSHKGQILKSSLADVVACYSSEKRKLYQKAADSLEKKPVQWRDSKVQAFIKVEKLECDTKDPVPRTIQPRSKRYNLAIGQYLRLNEKKMLDSIDDVFKEKTVLSGLDNRAQGRAIAHKWRKYQNPIGIGLDASRFDQHCSVDALKFEQTFYKACFPGDQQLETLLKWQLSNTGSALLPTGELVRYRTKGCRMSGDINTGLGNKILMCSMVHAFLKETGVRASLANNGDDCVLFCEKGDYEQINRNLEQWFLCRGFEMTVEKPVDVLEKVAFCRSQPVCIATQWAMVRQLGSLSRDCFSTQDWLNPKTFKDAMNALGQCNGIINDGVPIHMAQAKLMHRIGGNRKFNLDALHKQMEYSWRDRLGKRTNLLWSEVEDATRLSYFRAFGIEPYIQRIVEEYFSQVEITCEGRSTNVLPTHYSRIHKDLIKAR"}, "B2": {"name": "C-terminally HA-tagged p88^pol (enzyme, UniProt P22956 1-767)", "chain": "B1 chain"}, "B3": {"name": "Brome mosaic virus replication protein 1a (protein, UniProt P03588 1-961)", "chain": "MSSSIDLLKLIAEKGADSQSAQDIVDNQVAQQLSAQIEYAKRSKKINVRNKLSIEEADAFRDRYGGAFDLNLTQQYHAPHSLAGALRVAEHYDCLDSFPPEDPVIDFGGSWWHHFSRRDKRVHSCCPVLGVRDAARHEERMCRMRKILQESDDFDEVPNFCLNRAQDCDVQADWAICIHGGYDMGFQGLCDAMHSHGVRVLRGTVMFDGAMLFDREGFLPLLKCHWQRDGSGADEVIKFDFENESTLSYIHGWQDLGSFFTESVHCIDGTTYLLEREMLKCNIMTYKIIATNLRCPRETLRHCVWFEDISKYVGVSIPEDWSLNRWKCVRVAKTTVREVEEIAFRCFKESKEWTENMKAVASILSAKSSTVIINGQAIMAGERLDIEDYHLVAFALTLNLYQKYEKLTALRDGMEWKGWCHHFKTRFWWGGDSSRAKVGWLRTLASRFPLLRLDSYADSFKFLTRLSNVEEFEQDSVPISRLRTFWTEEDLFDRLEHEVQTAKTKRSKKKAKVPPAAEIPQEEFHDAPESSSPESVSDDVKPVTDVVPDAEVSVEVPTDPRGISRHGAMKEFVRYCKRLHNNSESNLRHLWDISGGRGSEIANKSIFETYHRIDDMVNVHLANGNWLYPKKYDYTVGYNEHGLGPKHADETYIVDKTCACSNLRDIAEASAKVSVPTCDISMVDGVAGCGKTTAIKDAFRMGEDLIVTANRKSAEDVRMALFPDTYNSKVALDVVRTADSAIMHGVPSCHRLLVDEAGLLHYGQLLVVAALSKCSQVLAFGDTEQISFKSRDAGFKLLHGNLQYDRRDVVHKTYRCPQDVIAAVNLLKRKCGNRDTKYQSWTSESKVSRSLTKRRITSGLQVTIDPNRTYLTMTQADKAALQTRAKDFPVSKDWIDGHIKTVHEAQGISVDNVTLVRLKSTKCDLFKHEEYCLVALTRHKKSFEYCFNGELAGDLIFNCVK"}, "B4": {"name": "Brome mosaic virus replication protein 2a^pol (enzyme, UniProt P03594 1-822)", "chain": "MSSKTWDDDFVRQVPSFQWIIDQSLEDEVEAASLQVQEPADGVAIDGSLASFKLAIAPLEIGGVFDPPFDRVRWGSICDTVQQMVQQFTDRPLIPQAEMARMLYLDIPGSFVLEDEIDDWYPEDTSDGYGVSFAADEDHASDLKLASDSSNCEIEEVRVTGDTPKELTLGDRYMGIDEEFQTTNTDYDITLQIMNPIEHRVSRVIDTHCHPDNPDISTGPIYMERVSLARTEATSHSILPTHAYFDDSYHQALVENGDYSMDFDRIRLKQSDVDWYRDPDKYFQPKMNIGSAQRRVGTQKEVLTALKKRNADVPEMGDAINMKDTAKAIAKRFRSTFLNVDGEDCLRASMDVMTKCLEYHKKWGKHMDLQGVNVAAETDLCRYQHMLKSDVKPVVTDTLHLERAVAATITFHSKGVTSNFSPFFTACFEKLSLALKSRFIVPIGKISSLELKNVRLNNRYFLEADLSKFDKSQGELHLEFQREILLALGFPAPLTNWWSDFHRDSYLSDPHAKVGMSVSFQRRTGDAFTYFGNTLVTMAMIAYASDLSDCDCAIFSGDDSLIISKVKPVLDTDMFTSLFNMEIKVMDPSVPYVCSKFLVETEMGNLVSVPDPLREIQRLAKRKILRDEQMLRAHFVSFCDRMKFINQLDEKMITTLCHFVYLKYGKEKPWIFEEVRAALAAFSLYSENFLRFSDCYCTEGIRVYQMSDPVCKFKRTTEERKTDGDWFHNWKNPKFPGVLDKVYRTIGIYSSDCSTKELPVKRIGRLHEALERESLKLANDRRTTQRLKKKVDDYATGRGGLTSVDALLVKSHCETFKPSDLR"}}, "assay_in_all_cases": "co-IP", "key": {"[1]": {"target": "T1, C-terminally HA-tagged p88^pol (Red clover necrotic mosaic virus (Australian strain)) (UniProt P22956)", "T1 sequence": "B1 chain"}, "[2]": {"target": "green fluorescent protein (GFP)-fused NbPLDβ (N. benthamiana)"}, "[3]": {"target": "C-terminally FLAG-tagged NbPLDα (N. benthamiana)"}, "[4]": {"target": "C-terminally FLAG-tagged NbPLDβ (N. benthamiana)"}}, "note": "No constants are given. Whether binding was seen depends on the method and setting. Binding seen in cells or lysates may run through a third protein. Binding calls can cover weak binding; strength is not graded here. Sequences can lack the tags named with a protein."}
{"molecule": "C-terminally FLAG-tagged NbPLDα (from UniProt A0A0M3VGN3) (enzyme)", "values": [{"measurement": "binding", "setting": "[1]", "result": "binds"}]}
{"molecule": "B1", "values": [{"measurement": "binding", "setting": "[2]", "result": "binds"}]}
{"molecule": "B2", "values": [{"measurement": "binding", "setting": "[3]", "result": "binds"}, {"measurement": "binding", "setting": "[4]", "result": "binds"}]}
{"molecule": "B3", "values": [{"measurement": "binding", "setting": "[4]", "result": "binds"}]}
{"molecule": "B4", "values": [{"measurement": "binding", "setting": "[4]", "result": "binds"}]}
